AC50 data for 18 compounds are collected here from PubChem BioAssay AID493014 (National Center for Advancing Translational Sciences (NCATS), 2011).

The list shows a part of the results. Shown are side measurements of this screen, not its main read-out; they come without a call. Most of these compounds were active or inconclusive in the main read-out, so they are no random draw. Potencies come from curve fits of mixed quality, noted in brackets.

This test is described as follows: qHTS Assay to Find Inhibitors of Chronic Active B-Cell Receptor Signaling. The following applies: ABC-DLBCL IkBa-CBG/CBR reporter, luminescence ratio (green luciferase fused to IkBa over red control in TMD8 lymphoma cells), 4 h. Put shortly:
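Cell line TMD8 (human ABC DLBCL), stably expressing tet-inducible CBG68-IkBa fusion and CBR; IMDM/0.5% FBS; cpd up to 46 uM; dox induction, 4 h, 37C/5% CO2; dual luminescence; green/red ratio; MG132 control.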
Background: Quantitative high-throughput screening tests each substance at several concentrations.

[1] abbreviates: measured here: CBR red luminescence, cell number.

As a reminder, the AC50 is the concentration at which the activity in the assay is half-maximal.

Consider `O=C(/C=C/c1c(Cl)cccc1Cl)NCCc1ccccc1`, for which the AC50 under setting [1] is 2.82 µM [rising, single point].
As to `CC1=C(C(=O)OC(C)C)C(c2cccc(F)c2)N2C(=O)C(C)SC2=N1` (centres undefined), under setting [1], the AC50 was 29.1 µM [falling, single point].
For the compound `CCCCn1c(=O)c(F)cn(Cc2ccc(OC)c([N+](=O)[O-])c2)c1=O`, the AC50 is, setting by setting: under setting [1], 13 µM [rising, partial curve]; (measured here: IkBa-CBG green luminescence) 25.9 µM [falling, partial curve, poor fit].
With `C=CCNS(=O)(=O)c1ccc2c(c1)n(C)c(=O)n2C`, under setting [1], the AC50 was 14.1 µM [falling, partial curve, poor fit].
Still for that read-out and setting: for `COC(=O)c1ccc2nc(NC(=O)C(C)C)sc2c1` the value was 35.5 µM [falling, single point]; for `N#CC1(NC(=O)COC(=O)c2ccc(-c3ccc(O)cc3)cc2)CCCCC1`, 7.31 µM [rising, partial curve, poor fit]; for `CC(=O)c1ccc2c(c1)N(C)c1ccccc1S2`, 20.6 µM [rising, partial curve, poor fit].
Still for that read-out and setting: for `CCSc1nc2ccccc2c(=O)n1CCc1ccc(OC)c(OC)c1` the value was 8.91 µM [falling, partial curve].
`CSCCC(NC(N)=O)C(=O)Nc1cccc(S(=O)(=O)N2CCOCC2)c1` (centres undefined): the AC50 under setting [1] is 12.6 µM [rising, partial curve, poor fit].
Turning to `CCOC(=O)C1CCCN(C2=NC(=O)/C(=C/c3ccc(O)c(OC)c3)S2)C1` (centres undefined), under setting [1], the concentration at half-maximal activity (AC50) was 25.1 µM [falling, single point].
Same read-out and setting: for `O=C(N/N=C/c1ccc2c(c1)OCO2)c1ccc(Cn2cc([N+](=O)[O-])cn2)o1` the value was 9.2 µM [falling, partial curve]; for `CC(Nc1n[nH]c(=O)[nH]c1=O)C(=O)N/N=C/c1ccccc1` (centres undefined), 0.562 µM [falling, full curve, poor fit]; for `O=C(COC(=O)c1ccc(Cl)cc1[N+](=O)[O-])NC(=O)c1ccccc1`, 35.5 µM [rising, single point].
Same read-out and setting: for `O=C(NNC1CC(=O)N(c2ccc3c(c2)OCCO3)C1=O)c1ccccc1` (centres undefined) the value was 35.5 µM [falling, single point].
The same measure, in the same setting: as for `N#Cc1cc2c(N)c(C(=O)Nc3ccccc3)sc2nc1N`, the figure is 5.8 µM [falling, partial curve].
As for `CCCC(C)C(=O)Nc1ccc(Cl)cc1Cl` (centres undefined), the AC50 under setting [1] was 29.1 µM [rising, single point].
For the compound `O=C(/C=C/c1ccccc1)Nc1ccc2c(c1)C(=O)NC2=O`, the concentration at half-maximal activity (AC50) under setting [1] is 0.1 µM [falling, full curve].
Same read-out and setting: as for `CCN1C(C(=O)Nc2cc(C)on2)=C(O)c2ccccc2S1(=O)=O`, the figure is 10 µM [rising, partial curve, poor fit].
